Results are given in words; binding and its absence hold for the method and conditions named. Some entries that bind do so weakly or less than the wild type.
Legend:
[1] = biological target: Dendra1-10 (large fragment of split Dendra2); assay: in vitro fluorescence reconstitution
[2] = biological target: Dendra1-10 (large fragment of split Dendra2); assay: co-expression in HEK293 cells, fluorescence complementation
[3] = biological target: Dendra1-10 (large fragment of split Dendra2); assay: in vitro fluorescence reconstitution, read every 0.1 s for 30 s
[4] = biological target: Dendra1-10 (large fragment of split Dendra2); assay: in vitro fluorescence complementation, purified XFP1-10 and synthesized XFP11 peptide

Measured: binding

B1: Dendra11 (small fragment of split Dendra2) (peptide)
peptide: MGGGPDAHFVDHRIEILGNDSDYNKVKLYEHAVARYSPLPSQVW
binds: all assays above
